Some of these results come from one statement about several compounds together.
Test system: ticks
Experiment: tick repellency test (petri dish) with filter paper heated at 150° C.
Type: in vivo
Conditions: 1 g/m^2, 150° C. 26 min (corresponding to 25° C., about 3 years), 24 hours; listed as mixed farnesyl acetone isomers
Protocol: Subsequently, a relationship between the tick repellent effect resulting from a difference in oxidative modification rate and time was examined. In the test, mixed farnesyl acetone isomers, trans-farnesyl acetone, 2,4-DHAP and xanthoxyline were each dissolved to 1 g/m^2 in acetone, and each filter paper added thereto was heated at 150° C. only for 3 minutes, 5 minutes or 26 minutes. The filter paper not heated (hereinafter referred to as 150° C., 0 min) was also prepared.
Each filter paper was placed on the center of a petri dish with a diameter of 4 cm, and 0.05 g of an attractant sample was placed on the center of filter paper. The petri dish was placed on the center of another petri dish with a diameter of 9 cm, and about 10000 ticks were provided together with a medium to this another petri dish, which was left to stand for 24 hours. After that, ticks in the 4 cm petri dish were counted.
For the repellency rate, the proportion of the number of ticks which had not been attracted was calculated by the following formula using the number of ticks entering the petri dish on which only the attractant sample was placed, x (control), and contrarily the number of ticks entering the petri dish on which mixed farnesyl acetone isomers, trans-farnesyl acetone, 2,4-DHAP or xanthoxyline was placed, n.
Repellency rate={(x−n)/x} x 100 (%)
* a small number of entering ticks =high repellency rate […]

With `CC(=O)CCC=C(C)CCC=C(C)CCC=C(C)C` (mixture of isomers) [Mixed farnesyl acetone isomers, farnesyl acetone] the Repellency rate was less than 30%.
